PMC12670160, “A drug-repurposing screen of FDA- and EMA-approved drugs identifies two NF-κB inhibitors active against eumycetoma” (Journal of Antimicrobial Chemotherapy, 2025)
Structures can show the parent of a compound that is named as a salt. The whole screen tested about 5,300 compounds, of which about 130 (2.5%) showed an effect of 50% or more. Some of the results follow. Square brackets hold non-standard residues; d marks the D form. Peptide text beside a SMILES is read from it. * marks the point of attachment. Sta = CC(C)C[C@H](N)[C@@H](O)CC(=O)O; Isovaleryl = CC(C)CC(=O)*

test system: M. mycetomatis strain mm55; details: primary screen, metabolic activity vs growth control; 96 h, 2 µM; inhibitor

Question: Which “% viability” value does the source give for `Cc1ccc(N2CCN(CCC3NC(=O)c4ccccc43)CC2)cc1C` (centres unmarked) [ONC0001561, pd168568] here?
Answer: 92.99%

Question: `Cc1nc(N)sc1CCN` [ONC0002698, amthamine] was tested. Which “% viability” value did it give?
Answer: 64.43%

Question: With `CNC(=O)c1cc(COc2nnc(Nc3ccc(Cl)cc3)c3ccoc23)ccn1` [ONC0004937, telatinib bay 579352] as the molecule, how does the “% viability” value read?
Answer: 72.8%

Question: With `COc1cc2nccc(Oc3ccc(NC(=O)C4(C(=O)Nc5ccc(F)cc5)CC4)cc3)c2cc1OC` [ONC0001709, cabozantinib] as the molecule, how does the “% viability” value read?
Answer: 86.52%

Question: For `CCN(CC)Cc1nccn1-c1ccc([N+](=O)[O-])cc1C(=O)c1ccccc1Cl` [ONC0003309, nizofenone fumarate], which “% viability” value is on record?
Answer: 77.96%

Question: With `Cc1cc(O)c2c(=O)c3c(O)cc(O)c4c5c(O)cc(O)c6c(=O)c7c(O)cc(C)c8c1c2c(c34)c(c78)c65` [ONC0003458, hypericin] as the molecule, how does the “% viability” value read?
Answer: 66.52%

Question: For `O=C(O)/C=C/c1ccc(Cn2ccnc2)cc1` [ONC0000811, ozagrel], which “% viability” value is on record?
Answer: 75.33%

Question: With `Fc1cccc(/C=N/N=C/c2cccc(F)c2)c1` [ONC0002586, dfb] as the molecule, how does the “% viability” value read?
Answer: 79.39%

Question: With `CC(C)(N)c1nc(-c2ccc(OC(F)(F)F)cc2)c[nH]1` [ONC0000402, pf04885614] as the molecule, how does the “% viability” value read?
Answer: 73.02%

Question: Which “% viability” value does the source give for `Cc1cc([C@@H](C)Nc2ccccc2C(=O)O)c2nc(N3CCOCC3)cc(=O)n2c1` [ONC0001417, azd6482] here?
Answer: 66.22%

Question: How did the “% viability” value turn out when `CC(C)(Oc1ccc(C(=O)c2ccc(Cl)cc2)cc1)C(=O)O` [ONC0003911, fenofibric acid] was run?
Answer: 60.7%

Question: For `O=C1c2ccccc2C(Cc2ccnc(F)c2)(Cc2ccnc(F)c2)c2ccccc21` [ONC0003529, dmp543], which “% viability” value is on record?
Answer: 96.39%

Question: For `COCCOC(=O)C1=C(C)NC(C)=C(C(=O)OC/C=C/c2ccccc2)C1c1cccc([N+](=O)[O-])c1` (centres unmarked) [ONC0003542, cilnidipine], which “% viability” value is on record?
Answer: 87.69%

Question: `O=S1(=O)OC(c2ccc(O)cc2)(c2ccc(O)cc2)c2ccccc21` [ONC0003808, phenolsulfonphthalein] was tested. Which “% viability” value did it give?
Answer: 71.08%

Question: `C=C[C@H]1C[N@]2CC[C@H]1C[C@@H]2[C@H](O)c1ccnc2ccccc12` [ONC0003181, cinchonine] was tested. Which “% viability” value did it give?
Answer: 100.9%

Question: How did the “% viability” value turn out when `CCOc1nc2cccc(C(=O)O)c2n1Cc1ccc(-c2ccccc2-c2noc(=O)[nH]2)cc1` [ONC0004822, azilsartan tak536] was run?
Answer: 68.56%

Question: With `Cc1[nH]c(C=C2C(=O)Nc3ccc(F)cc32)c(C)c1C(=O)NC[C@H](O)CN1CCOCC1` [ONC0005595, su14813] as the molecule, how does the “% viability” value read?
Answer: 85.67%

Question: For `O=c1c(-c2ccc(O)cc2)coc2c([C@@H]3O[C@H](CO)[C@@H](O)[C@H](O)[C@H]3O)c(O)ccc12` [ONC0004968, puerarin kakonein], which “% viability” value is on record?
Answer: 66.02%

Question: `CCCCN1CCC(CCC(=O)c2cc(Cl)c(N)cc2OC)CC1` [ONC0002606, rs67333] was tested. Which “% viability” value did it give?
Answer: 88.79%

Question: With `CCn1nc(C(=O)O)c(=O)c2cc3c(cc21)OCO3` [ONC0000281, cinoxacin] as the molecule, how does the “% viability” value read?
Answer: 70.93%

Question: How did the “% viability” value turn out when `Cc1cc(C)cc(C(=O)NOCCCCCC(=O)NO)c1` [ONC0000176, lmk235] was run?
Answer: 112.8%

Question: `CN/C(=C\[N+](=O)[O-])NCCSCc1csc(CN(C)C)n1` [ONC0005362, nizatidine] was tested. Which “% viability” value did it give?
Answer: 92.97%

Question: With `Cc1cc(C)c(/C=C2\C(=O)Nc3ccccc32)[nH]1` [ONC0001545, semaxanib] as the molecule, how does the “% viability” value read?
Answer: 78.09%

Question: For `CC(C)c1cc(-c2ccc(F)c3ccccc23)nc(N)n1` [ONC0005086, rs127445], which “% viability” value is on record?
Answer: 107.2%

Question: For `O=C1CC2(CCCC2)CC(=O)N1CCCCN1CCN(c2ncccn2)CC1` [ONC0005350, buspirone hydrochloride], which “% viability” value is on record?
Answer: 64.44%

Question: `OC[C@H]1OC(O)C[C@@H](O)[C@@H]1O` (mixture of isomers) [ONC0003476, 2deoxyglucose] was tested. Which “% viability” value did it give?
Answer: 78.39%

Question: How did the “% viability” value turn out when `c1ccc(OCc2ccc(CCCN3CCOCC3)cc2)cc1` [ONC0002891, fomocain] was run?
Answer: 115.8%

Question: `CCCCN(CCCC)C(=O)CN1C[C@H](c2ccc3c(c2)OCO3)[C@@H](C(=O)O)[C@@H]1c1ccc(OC)cc1` [ONC0002102, atrasentan hydrochloride] was tested. Which “% viability” value did it give?
Answer: 66.48%

Question: Which “% viability” value does the source give for `CC1(C)C(/C=C/C=C/C=C/C=C2\N(CCCCS(=O)(=O)O)c3ccc4ccccc4c3C2(C)C)=[N+](CCCCS(=O)(=O)[O-])c2ccc3ccccc3c21` [ONC0002025, cardiogreen] here?
Answer: 67.83%

Question: `C[C@H](C(=O)O)c1ccc(-c2ccccc2)c(F)c1` [ONC0004598, flurbiprofen] was tested. Which “% viability” value did it give?
Answer: 66.5%

Question: With `Cc1c(F)cc(C(=O)NC2CC2)cc1-c1ccc(C(=O)NCC(C)(C)C)cn1` [ONC0001861, losmapimod] as the molecule, how does the “% viability” value read?
Answer: 107.7%

Question: `COc1ccc(S(=O)(=O)N(C(C)=O)c2ccccc2/C=C/c2cc[n+]([O-])cc2)cc1` [ONC0004882, hmn214] was tested. Which “% viability” value did it give?
Answer: 106.8%

Question: With `O=C(O)[C@@H](c1ccc(OCc2ccc3ccccc3n2)cc1)C1CCCC1` [ONC0005557, veliflapon] as the molecule, how does the “% viability” value read?
Answer: 76.74%

Question: For `CCn1ccnc1CC1COc2ccccc2O1` (centres unmarked) [ONC0001419, imiloxan], which “% viability” value is on record?
Answer: 88.86%

Question: Which “% viability” value does the source give for `CC(=O)N(OCc1ccccc1)[C@@H]1c2cc(C#N)ccc2OC(C)(C)[C@H]1O` [ONC0004462, y27152] here?
Answer: 125.5%

Question: How did the “% viability” value turn out when `N#Cc1cc(-c2n[nH]c(-c3ccncc3)n2)ccn1` [ONC0001182, topiroxostat] was run?
Answer: 99.34%

Question: For `C[N+]1(C)[C@@H]2C[C@@H](OC(=O)[C@H](CO)c3ccccc3)C[C@H]1[C@@H]1O[C@@H]12` [ONC0000425, methscopolamine bromide], which “% viability” value is on record?
Answer: 63.9%

Question: For `Cc1sc(C)c2c1CCC=C2c1cnc[nH]1` [ONC0000248, tcg1000], which “% viability” value is on record?
Answer: 71.17%

Question: How did the “% viability” value turn out when `CCn1cc(C(=O)O)c(=O)c2cc3c(cc21)OCO3` [ONC0000603, oxolinic acid] was run?
Answer: 129.7%

Question: Which “% viability” value does the source give for `CC(=O)O[C@@]12CO[C@@H]1C[C@H](O)[C@@]1(C)C(=O)[C@H](O)C3=C(C)[C@@H](O)C[C@@](O)([C@@H](OC(=O)c4ccccc4)[C@H]21)C3(C)C` [ONC0004983, 10dab 10deacetylbaccatin] here?
Answer: 57.66%

Question: With `O=C(O)c1cnn(-c2nc3cc(OC(F)(F)F)c(Cl)cc3[nH]2)c1` [ONC0001206, jnj42041935] as the molecule, how does the “% viability” value read?
Answer: 120.2%

Question: With `COC(=O)c1ccc(O)cc1` [ONC0003859, methylparaben] as the molecule, how does the “% viability” value read?
Answer: 64.72%

Question: `Nc1nc(NCCc2ccc(O)cc2)nc2nc(-c3ccco3)nn12` [ONC0004246, zm241385] was tested. Which “% viability” value did it give?
Answer: 57.65%

Question: How did the “% viability” value turn out when `CCCCCCCCCCCC(=O)N(CCO)CCO` [ONC0003853, nnbis2hydroxyethyldodecanamide] was run?
Answer: 67.81%

Question: How did the “% viability” value turn out when `COC(=O)N(C)c1c(N)nc(-c2nn(Cc3ccccc3F)c3ncccc23)nc1N` [ONC0005622, riociguat] was run?
Answer: 86.35%

Question: For `Cc1nc(-c2cn3c(n2)-c2ccc(-c4cnn(C(C)(C)C(N)=O)c4)cc2OCC3)n(C(C)C)n1` [ONC0000929, taselisib], which “% viability” value is on record?
Answer: 95.85%

Question: For `O=C(/C=C/c1ccc(CN(CCO)CCc2c[nH]c3ccccc23)cc1)NO` [ONC0004920, laq824 dacinostat], which “% viability” value is on record?
Answer: 120.2%

Question: For `CC(C)CC(=O)N[C@H](C(=O)N[C@H](C(=O)N[C@@H](CC(C)C)[C@@H](O)CC(=O)N[C@@H](C)C(=O)N[C@@H](CC(C)C)[C@@H](O)CC(=O)O)C(C)C)C(C)C` [ONC0003490, pepstatin a] (Isovaleryl-VV[Sta]A[Sta]-OH), which “% viability” value is on record?
Answer: 59.74%

Question: `CC1(C)CCC(C)(C)c2cc(C3(c4ccc5cc(C(=O)O)ccc5c4)SCCS3)ccc21` [ONC0001639, mm11253] was tested. Which “% viability” value did it give?
Answer: 70.81%

Question: With `O=c1cc[nH]c(=S)[nH]1` [ONC0002403, 2thiouracil] as the molecule, how does the “% viability” value read?
Answer: 79.01%

Question: With `N=C(N)NC(=O)c1cnn(-c2cccc3ncccc23)c1C1CC1` [ONC0001657, zoniporide] as the molecule, how does the “% viability” value read?
Answer: 82.36%

Question: With `c1ccc(CCNc2nc(-c3ccccc3)cs2)cc1` [ONC0003762, fanetizole] as the molecule, how does the “% viability” value read?
Answer: 120.3%

Question: Which “% viability” value does the source give for `COC(=O)C1=C(C)NC(C)=C(C(=O)OCCSc2ccccc2)C1C` (centres unmarked) [ONC0000081, pca4248] here?
Answer: 107.9%

Question: `C[C@H](O)C(=O)Nc1c(I)c(C(=O)NC(CO)CO)c(I)c(C(=O)NC(CO)CO)c1I` [ONC0002069, iopamidol] was tested. Which “% viability” value did it give?
Answer: 64.43%

Question: `CN(C)C(=O)Oc1cc(OC(=O)N(C)C)cc(C(O)CNC(C)(C)C)c1` (centres unmarked) [ONC0004231, bambuterol hydrochloride] was tested. Which “% viability” value did it give?
Answer: 62.71%

Question: Which “% viability” value does the source give for `Cc1cccc(C#Cc2ccccc2)n1` [ONC0002625, mpep] here?
Answer: 98.76%

Question: Which “% viability” value does the source give for `c1ccc(C(NCc2cccnc2)(c2ccccc2)c2ccccc2)cc1` [ONC0003020, ucl2077] here?
Answer: 70.37%

Question: `N[C@H](C(=O)O)c1cc(O)cc(O)c1` [ONC0001512, 35dhpgs] was tested. Which “% viability” value did it give?
Answer: 79.83%

Question: How did the “% viability” value turn out when `Cn1cc([S+](C)[O-])c(=O)c2ccc(F)cc21` (centres unmarked) [ONC0001984, flosequinan] was run?
Answer: 105.9%

Question: For `O=C(O)c1cc2ccccc2s1` [ONC0003749, bl5583], which “% viability” value is on record?
Answer: 99.79%

Question: `CO/N=C(\C(=O)N[C@@H]1C(=O)N2C(C(=O)O)=C(Cn3ccc(=N)n3CCO)CS[C@H]12)c1csc(N)n1` [ONC0004384, cefoselis sulfate] was tested. Which “% viability” value did it give?
Answer: 127.4%

Question: Which “% viability” value does the source give for `CCCN1CCC[C@H](c2cccc(O)c2)C1` [ONC0002744, r33hydroxyphenylnpropylpiperidine hydrochloride] here?
Answer: 58.06%
